Values from PubChem BioAssay AID504791 (Drosophila RNAi Screening Center, 2011).
In all, the deposit lists about 23,000 reagents; below is a random part of those with a known target gene and a result. Over the whole deposit, 199 (0.86%) got an active call. 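Plate-scaled ratios behind the calls are not deposited; printed light signals are raw; many rows marked increased or decreased are still called inactive.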 Entries without a mark were called inactive. Names joined by + are all predicted targets of the reagent. Not given: the direction of the score.

Assay: 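Factors in Argonaute-based small RNA production and activity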 (primary screen)
Cells: Drosophila S2-derived reporter cells
Reagents: long dsRNA against Drosophila genes, about 150-250 ng dsRNA per well (siRNA assay); about 80-120 ng (miRNA assay)
Timing: about 5 days (siRNA assay); about 4 days (miRNA assay)
Conditions: copper sulfate induction of reporters: 25 µM (siRNA assay); 200 mM stated (miRNA assay), 1-2 days before reading
Detection: 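Per-well ratio of Renilla over firefly light, expressed relative to that plate's average ratio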
Call rule: 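a well was a first-pass pick when its plate-scaled ratio rose above 1.5 (siRNA assay) or 1.6 (miRNA assay), or dropped below 0.6; a gene counted only if two separate dsRNAs agreed on retest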

CG9029 [DRSC03129]
- stable assay Renilla, run 1 (luminescence): 8006
- stable assay firefly, run 1 (luminescence): 4.21e5

CG12935 [DRSC06248]
- stable assay Renilla, run 1 (luminescence): 8299
- stable assay firefly, run 1 (luminescence): 4.52e5

CG11674 [DRSC19414]
- stable assay Renilla, run 1 (luminescence): 7894
- stable assay firefly, run 1 (luminescence): 5.68e5

CG7856 [DRSC04896]
- stable assay Renilla, run 1 (luminescence): 5779
- stable assay firefly, run 1 (luminescence): 3.58e5

CG17271 [DRSC15210]
- stable assay Renilla, run 1 (luminescence): 8458
- stable assay firefly, run 1 (luminescence): 4.05e5

CG17271 [DRSC22629]
- stable assay Renilla, run 1 (luminescence): 2071
- stable assay firefly, run 1 (luminescence): 1.99e5

CG17271 [DRSC22982]
- stable assay Renilla, run 1 (luminescence): 5104
- stable assay firefly, run 1 (luminescence): 3.81e5

CG4116 [DRSC18348]
- stable assay Renilla, run 1 (luminescence): 6810
- stable assay firefly, run 1 (luminescence): 3.89e5

Ir92a [DRSC15111]
- stable assay Renilla, run 1 (luminescence): 6856
- stable assay firefly, run 1 (luminescence): 3.37e5

CG2993 [DRSC14284]
- stable assay Renilla, run 1 (luminescence): 8006
- stable assay firefly, run 1 (luminescence): 6.80e5

CG2993 [DRSC15457]
- stable assay Renilla, run 1 (luminescence): 8158
- stable assay firefly, run 1 (luminescence): 4.31e5

CG7548 [DRSC10874]
- stable assay Renilla, run 1 (luminescence): 6674
- stable assay firefly, run 1 (luminescence): 3.98e5

p130CAS + Dic61B [DRSC08588]
- stable assay Renilla, run 1 (luminescence): 12584
- stable assay firefly, run 1 (luminescence): 4.29e5

CG32713 [DRSC22766]
- stable assay Renilla, run 1 (luminescence): 4383
- stable assay firefly, run 1 (luminescence): 4.05e5

CG17819 [DRSC15279]
- stable assay Renilla, run 1 (luminescence): 7438
- stable assay firefly, run 1 (luminescence): 4.34e5

CG31867 [DRSC03338]
- stable assay Renilla, run 1 (luminescence): 7052
- stable assay firefly, run 1 (luminescence): 4.03e5

Mbs [DRSC09414]
- stable assay Renilla, run 1 (luminescence): 5306
- stable assay firefly, run 1 (luminescence): 3.72e5

Mbs [DRSC10525]
- stable assay Renilla, run 1 (luminescence): 6691
- stable assay firefly, run 1 (luminescence): 3.09e5

Mbs [DRSC10553]
- stable assay Renilla, run 1 (luminescence): 6679
- stable assay firefly, run 1 (luminescence): 4.41e5

CG14606 [DRSC12550]
- stable assay Renilla, run 1 (luminescence): 6840
- stable assay firefly, run 1 (luminescence): 4.46e5

Sox100B [DRSC15090]
- stable assay Renilla, run 1 (luminescence): 6620
- stable assay firefly, run 1 (luminescence): 3.31e5

Sox100B [DRSC16866]
- stable assay Renilla, run 1 (luminescence): 6131
- stable assay firefly, run 1 (luminescence): 3.47e5

Pstk + Tim9b [DRSC19504]
- stable assay Renilla, run 1 (luminescence): 8255
- stable assay firefly, run 1 (luminescence): 5.98e5

Pstk + Tim9b [DRSC20292]
- stable assay Renilla, run 1 (luminescence): 5842
- stable assay firefly, run 1 (luminescence): 3.20e5

CG5928 [DRSC18391]
- stable assay Renilla, run 1 (luminescence): 5331
- stable assay firefly, run 1 (luminescence): 4.66e5

CG9701 [DRSC11093]
- stable assay Renilla, run 1 (luminescence): 10935
- stable assay firefly, run 1 (luminescence): 4.16e5

Jhbp3 [DRSC12247]
- stable assay Renilla, run 1 (luminescence): 6207
- stable assay firefly, run 1 (luminescence): 3.69e5

CG9997 [DRSC16591]
- stable assay Renilla, run 1 (luminescence): 6634
- stable assay firefly, run 1 (luminescence): 4.33e5
